B1: DDX46 (protein, UniProt Q7L014 2-1031, looked up)
Probable ATP-dependent RNA …: GRESRHYRKRSASRGRSGSRSRSRSPSDKRSKRGDDRRSRSRDRDRRRERSRSRDKRRSRSRDRKRLRRSRSRERDRSRERRRSRSRDRRRSRSRSRGRRSRSSSPGNKSKKTENRSRSKEKTDGGESSKEKKKDKDDKEDEKEKDAGNFDQNKLEEEMRKRKERVEKWREEQRKKAMENIGELKKEIEEMKQGKKWSLEDDDDDEDDPAEAEKEGNEMEGEELDPLDAYMEEVKEEVKKFNMRSVKGGGGNEKKSGPTVTKVVTVVTTKKAVVDSDKKKGELMENDQDAMEYSSEEEEVDLQTALTGYQTKQRKLLEPVDHGKIEYEPFRKNFYVEVPELAKMSQEEVNVFRLEMEGITVKGKGCPKPIKSWVQCGISMKILNSLKKHGYEKPTPIQTQAIPAIMSGRDLIGIAKTGSGKTIAFLLPMFRHIMDQRSLEEGEGPIAVIMTPTRELALQITKECKKFSKTLGLRVVCVYGGTGISEQIAELKRGAEIIVCTPGRMIDMLAANSGRVTNLRRVTYVVLDEADRMFDMGFEPQVMRIVDNVRPDRQTVMFSATFPRAMEALARRILSKPIEVQVGGRSVVCSDVEQQVIVIEEEKKFLKLLELLGHYQESGSVIIFVDKQEHADGLLKDLMRASYPCMSLHGGIDQYDRDSIINDFKNGTCKLLVATSVAARGLDVKHLILVVNYSCPNHYEDYVHRAGRTGRAGNKGYAYTFITEDQARYAGDIIKALELSGTAVPPDLEKLWSDFKDQQKAEGKIIKKSSGFSGKGFKFDETEQALANERKKLQKAALGLQDSDDEDAAVDIDEQIESMFNSKKRVKDMAAPGTSSVPAPTAGNAEKLEIAKRLALRINAQKNLGIESQDVMQQATNAILRGGTILAPTVSAKTIAEQLAEKINAKLNYVPLEKQEEERQDGGQNESFKRYEEELEINDFPQTARWKVTSKEALQRISEYSEAAITIRGTYFPPGKEPKEGERKIYLAIESANELAVQKAKAEITRLIKEELIRLQNSYQPTNKGRYKVL
B2: HSD17B12 (protein, UniProt Q53GQ0 1-312, looked up)
Very-long-chain 3-oxoacyl-CoA …: MESALPAAGFLYWVGAGTVAYLALRISYSLFTALRVWGVGNEAGVGPGLGEWAVVTGSTDGIGKSYAEELAKHGMKVVLISRSKDKLDQVSSEIKEKFKVETRTIAVDFASEDIYDKIKTGLAGLEIGILVNNVGMSYEYPEYFLDVPDLDNVIKKMININILSVCKMTQLVLPGMVERSKGAILNISSGSGMLPVPLLTIYSATKTFVDFFSQCLHEEYRSKGVFVQSVLPYFVATKLAKIRKPTLDKPSPETFVKSAIKTVGLQSRTNGYLIHALMGSIISNLPSWIYLKIVMNMNKSTRAHYLKKTKKN
B3: CMAS (protein, UniProt Q8NFW8 1-434, looked up)
N-acylneuraminate …: MDSVEKGAATSVSNPRGRPSRGRPPKLQRNSRGGQGRGVEKPPHLAALILARGGSKGIPLKNIKHLAGVPLIGWVLRAALDSGAFQSVWVSTDHDEIENVAKQFGAQVHRRSSEVSKDSSTSLDAIIEFLNYHNEVDIVGNIQATSPCLHPTDLQKVAEMIREEGYDSVFSVVRRHQFRWSEIQKGVREVTEPLNLNPAKRPRRQDWDGELYENGSFYFAKRHLIEMGYLQGGKMAYYEMRAEHSVDIDVDIDWPIAEQRVLRYGYFGKEKLKEIKLLVCNIDGCLTNGHIYVSGDQKEIISYDVKDAIGISLLKKSGIEVRLISERACSKQTLSSLKLDCKMEVSVSDKLAVVDEWRKEMGLCWKEVAYLGNEVSDEECLKRVGLSGAPADACSTAQKAVGYICKCNGGRGAIREFAEHICLLMEKVNNSCQK
B4: PTPLAD1 (protein, UniProt Q9P035 1-362, looked up)
Very-long-chain …: MENQVLTPHVYWAQRHRELYLRVELSDVQNPAISITENVLHFKAQGHGAKGDNVYEFHLEFLDLVKPEPVYKLTQRQVNITVQKKVSQWWERLTKQEKRPLFLAPDFDRWLDESDAEMELRAKEEERLNKLRLESEGSPETLTNLRKGYLFMYNLVQFLGFSWIFVNLTVRFCILGKESFYDTFHTVADMMYFCQMLAVVETINAAIGVTTSPVLPSLIQLLGRNFILFIIFGTMEEMQNKAVVFFVFYLWSAIEIFRYSFYMLTCIDMDWKVLTWLRYTLWIPLYPLGCLAEAVSVIQSIPIFNETGRFSFTLPYPVKIKVRFSFFLQIYLIMIFLGLYINFRHLYKQRRRRYGQKKKKIH

For one series, the system named is mSWI/SNF complexes. Kind of series: mSWI/SNF complex purification with HA-tagged baits and mass spectrometry (peptide counts). Details: species or system human. Particulars: 293_HA-BRD7: HA-BRD7 bait purification, total peptide count per co-purified protein.
In turn, B1 returned a Total of 9.

As for B2, the Total came out at 8.

B3 yielded a Total of 8.

In turn, B4 displayed a Total of 8.

The same series, now with this note: 293_HA-BRD7: HA-BRD7 bait purification, unique peptide count per co-purified protein.
In turn, B1 came in with a Unique of 7.

For the molecule B2, the Unique was determined as 7.

In turn, B3 gave a Unique of 7.

As for B4, the Unique is reported as 7.
